PubChem BioAssay AID1508588 – Peter MacCallum Cancer Centre, 2020
The whole screen tested about 18,000 reagents; this is a part drawn at random. In the full data, 790 (4.4%) got an active call. 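Calls rest on a combination of fold-change classes in drug and vehicle arms, not all shown here.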

Screen: 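Knock-downs boosting vemurafenib effects on melanoma cell growth or lactate release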 (primary screen)
Cell system: human WM266.4 melanoma cells (BRAF V600 mutant)
Reagent: siRNA pool against human genes, 40 nM
Timing: 96 h from transfection to read-out
Challenge: vemurafenib 300 nM (about IC25), added 48 h after transfection, for 48 h; comparison arm got DMSO vehicle only
Detection: 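Cell gain (DAPI nuclei at end minus before drug, mean of two replicates) and medium lactate by absorbance per cell, both as ratio to non-targeting siRNA, also grouped into fold-change classes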
Direction: cell gain with vemurafenib: higher = more cell gain than with non-targeting siRNA; lactate per cell with vemurafenib: higher = more lactate made per cell
Hit rule: 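a knock-down counts as enhancing when its fold-change classes with vehicle and with vemurafenib, taken together, show a stronger drug effect on cell gain or lactate per cell; exact class pairs not stated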
Calls: active = enhances vemurafenib effect; inactive = no enhancement seen

gene | PubChem SID | cell gain with vemurafenib | lactate per cell with vemurafenib | Call
CENPC (centromere protein C) | SID152154126 | 0.39 | 1.01 | inactive
KCTD18 (potassium channel tetramerization domain containing 18) | SID152151924 | 0.5 | 0.43 | active
ZNF8 (zinc finger protein 8) | SID134318302 | 0.38 | 1.5 | inactive
HOXA7 (homeobox A7) | SID152155780 | 0.42 | 1.79 | inactive
MFSD8 (major facilitator superfamily domain containing 8) | SID134312410 | 0.87 | 0.65 | inactive
GTF2H1 (general transcription factor IIH subunit 1) | SID56479243 | 0.69 | 0.99 | inactive
MDN1 (midasin AAA ATPase 1) | SID135621838 | 0.49 | 0.99 | inactive
TMEM198 (transmembrane protein 198) | SID135624353 | 1.02 | 1.21 | inactive
SMARCA4 | SID134314982 | 0.52 | 0.82 | inactive
FAM168B (family with sequence similarity 168 member B) | SID135625218 | 0.38 | 1.78 | inactive
RHBDD1 (rhomboid domain containing 1) | SID134323175 | 0.66 | 0.94 | inactive
NDUFA5 (NADH:ubiquinone oxidoreductase subunit A5) | SID134316305 | 0.27 | 2.75 | inactive
VEPH1 (ventricular zone expressed PH domain containing 1) | SID134318549 | 0.29 | 1.15 | inactive
BCAS4 (breast carcinoma amplified sequence 4) | SID135621966 | 0.84 | 0.32 | inactive
TNFSF18 (TNF superfamily member 18) | SID152153911 | 1.05 | 0.69 | inactive
HORMAD1 (HORMA domain containing 1) | SID152149445 | 0.93 | 0.86 | inactive
NDST2 (N-deacetylase and N-sulfotransferase 2) | SID134313613 | 0.82 | 1.02 | inactive
ODF2 (outer dense fiber of sperm tails 2) | SID135623309 | 1.34 | 0.58 | inactive
C1orf115 (chromosome 1 open reading frame 115) | SID152152393 | 0.57 | 0.72 | inactive
ANKRD26 (ankyrin repeat domain 26) | SID152147096 | 0.74 | 0.01 | active
CHRM4 (cholinergic receptor muscarinic 4) | SID152153096 | 1.03 | 0.7 | inactive
OR3A1 (olfactory receptor family 3 subfamily A member 1) | SID134313876 | 1.09 | 0.46 | inactive
EN1 (engrailed homeobox 1) | SID152153220 | 0.88 | 1.07 | inactive
KRTAP26-1 (keratin associated protein 26-1) | SID134329410 | 0.47 | 1.77 | inactive
PLEKHA5 (pleckstrin homology domain containing A5) | SID134319430 | 0.08 | 1.33 | inactive
PRRC1 (proline rich coiled-coil 1) | SID135623475 | 0.82 | 0.9 | inactive
JUNB (JunB proto-oncogene, AP-1 transcription factor subunit) | SID134309826 | 0.76 | 0.8 | inactive
SAMD13 (sterile alpha motif domain containing 13) | SID152156150 | 0.57 | 0.93 | inactive
KALRN (kalirin RhoGEF kinase) | SID134314670 | 0.69 | 0.56 | active
CERS6 (ceramide synthase 6) | SID134329676 | 0.53 | 0.7 | inactive
NETO1 (neuropilin and tolloid like 1) | SID134321197 | 0.48 | 1.25 | inactive
QTRT1 (queuine tRNA-ribosyltransferase catalytic subunit 1) | SID135621308 | 0.49 | 1.08 | inactive
BAIAP3 (BAI1 associated protein 3) | SID134317878 | 0.09 | 1.33 | inactive
RHEX (regulator of hemoglobinization and erythroid cell expansion) | SID135625328 | 0.3 | 0.79 | inactive
PNOC (prepronociceptin) | SID152153544 | 0.69 | 1.03 | inactive
GFPT1 (glutamine--fructose-6-phosphate transaminase 1) | SID135621656 | 0.92 | 0.55 | inactive
MAGEA11 (MAGE family member A11) | SID135623304 | 0.54 | 1.16 | inactive
PNPLA7 (patatin like domain 7, lysophospholipase) | SID152155116 | 0.43 | 1.88 | inactive
ARHGAP42 (Rho GTPase activating protein 42) | SID134317757 | 0.31 | 1.94 | inactive
RAD23B (RAD23 nucleotide excision repair protein B) | SID152155564 | 0.51 | 1.16 | inactive
PTK6 (protein tyrosine kinase 6) | SID152152810 | 0.92 | 0.96 | inactive
KRT16 (keratin 16) | SID135623349 | 0.55 | 1.58 | inactive
TMEM219 (transmembrane protein 219) | SID152151811 | 0.32 | 0.96 | inactive
VCL (vinculin) | SID152147558 | 0.46 | 1.32 | inactive
GBP1 (guanylate binding protein 1) | SID135620944 | 0.7 | 0.8 | inactive
VCX (variable charge X-linked) | SID135622558 | 1.08 | 0.81 | inactive
ZNF43 (zinc finger protein 43) | SID152154933 | 0.24 | 1 | inactive
ATF1 (activating transcription factor 1) | SID152148177 | 0.7 | 0.9 | inactive
ELL3 (elongation factor for RNA polymerase II 3) | SID152151038 | 0.75 | 1.06 | inactive
CLASP2 (cytoplasmic linker associated protein 2) | SID152155948 | 0.68 | 0.54 | inactive
PRELID3A (PRELI domain containing 3A) | SID134323892 | 0.58 | 0.64 | inactive
NDRG1 (N-myc downstream regulated 1) | SID134315062 | 0.35 | 1.7 | inactive
NDUFS7 (NADH:ubiquinone oxidoreductase core subunit S7) | SID134328851 | 0.59 | 1.95 | inactive
NCKAP5L (NCK associated protein 5 like) | SID152154082 | 0.78 | 0.62 | inactive
SLX4 (SLX4 structure-specific endonuclease subunit) | SID152155284 | 0.1 | 0.42 | inactive
ZNF331 (zinc finger protein 331) | SID152154109 | 0.26 | 2.19 | inactive
MED11 (mediator complex subunit 11) | SID135625286 | 0.66 | 1.29 | inactive
SPOCK3 | SID152152717 | 0.07 | 3.58 | inactive
CTSL3P (cathepsin L family member 3, pseudogene) | SID135624818 | 0.54 | 0.86 | inactive
KLRC2 (killer cell lectin like receptor C2) | SID135622102 | 0.79 | 0.73 | inactive
TNR (tenascin R) | SID152154504 | 0.48 | 0.74 | inactive
ALKBH5 (alkB homolog 5, RNA demethylase) | SID152156277 | 0.03 | 2.01 | inactive
HMCES (5-hydroxymethylcytosine binding, ES cell specific) | SID152152791 | 0.96 | 0.94 | inactive
TMEM151A (transmembrane protein 151A) | SID134319792 | 0.35 | 1.27 | inactive
PRSS8 (serine protease 8) | SID152154565 | 0.55 | 0.84 | inactive
ZMIZ1 (zinc finger MIZ-type containing 1) | SID152149563 | 0.8 | 0.53 | inactive
FAM117A (family with sequence similarity 117 member A) | SID134322421 | 0.59 | 0.68 | inactive
CERS4 (ceramide synthase 4) | SID134318523 | 0.51 | 0.48 | active
MALSU1 (mitochondrial assembly of ribosomal large subunit 1) | SID134319645 | 0.28 | 0.81 | inactive
TMEM268 (transmembrane protein 268) | SID152152382 | 0.26 | 2.04 | inactive
COPA (coat protein complex I subunit alpha) | SID152148746 | -0.07 | 1.36 | inactive
GRPR (gastrin releasing peptide receptor) | SID152150913 | 1.41 | 0.51 | inactive
FAM50A (family with sequence similarity 50 member A) | SID134316940 | 0.97 | 0.5 | inactive
DIABLO (diablo IAP-binding mitochondrial protein) | SID134310478 | 0.45 | 0.88 | inactive
PGLYRP4 (peptidoglycan recognition protein 4) | SID135621616 | 0.68 | 0.84 | inactive
PMEL (premelanosome protein) | SID134317022 | 0.67 | 1.1 | inactive
TRMT1 (tRNA methyltransferase 1) | SID135621815 | 0.59 | 1.01 | inactive
MET (MET proto-oncogene, receptor tyrosine kinase) | SID56478534 | 0.41 | 0.59 | inactive
MAPRE2 (microtubule associated protein RP/EB family member 2) | SID134316767 | 0.52 | 0.68 | inactive
SLN (sarcolipin) | SID152151516 | 1 | 0.76 | inactive
CUX1 (cut like homeobox 1) | SID135622163 | 1.02 | 0.56 | inactive
FMO5 (flavin containing dimethylaniline monoxygenase 5) | SID135621512 | 1.08 | 1.23 | inactive
SLC6A9 | SID152155892 | 0.43 | 0.6 | inactive
CFAP52 (cilia and flagella associated protein 52) | SID135623586 | 0.59 | 0.64 | inactive

Laid out differently: entries from further up
OR3A1 (olfactory receptor family 3 subfamily A member 1) [SID134313876]
- cell gain with vemurafenib: 1.09
- lactate per cell with vemurafenib: 0.46
- Call: inactive

EN1 (engrailed homeobox 1) [SID152153220]
- cell gain with vemurafenib: 0.88
- lactate per cell with vemurafenib: 1.07
- Call: inactive

KRTAP26-1 (keratin associated protein 26-1) [SID134329410]
- cell gain with vemurafenib: 0.47
- lactate per cell with vemurafenib: 1.77
- Call: inactive

PLEKHA5 (pleckstrin homology domain containing A5) [SID134319430]
- cell gain with vemurafenib: 0.08
- lactate per cell with vemurafenib: 1.33
- Call: inactive

PRRC1 (proline rich coiled-coil 1) [SID135623475]
- cell gain with vemurafenib: 0.82
- lactate per cell with vemurafenib: 0.9
- Call: inactive

JUNB (JunB proto-oncogene, AP-1 transcription factor subunit) [SID134309826]
- cell gain with vemurafenib: 0.76
- lactate per cell with vemurafenib: 0.8
- Call: inactive

SAMD13 (sterile alpha motif domain containing 13) [SID152156150]
- cell gain with vemurafenib: 0.57
- lactate per cell with vemurafenib: 0.93
- Call: inactive

KALRN (kalirin RhoGEF kinase) [SID134314670]
- cell gain with vemurafenib: 0.69
- lactate per cell with vemurafenib: 0.56
- Call: active

CERS6 (ceramide synthase 6) [SID134329676]
- cell gain with vemurafenib: 0.53
- lactate per cell with vemurafenib: 0.7
- Call: inactive
